From the supplement of paper PMC12872613
Where a name gives a salt, the structure may show the parent alone. This is one part of the list. Cut-off read from the data, not from the text of the source: active = 0.7 or more and inactive = the rest. Repeats are few or missing, and single values can be far off.

These molecules were tested on MiaPaCa-2 CLSA-25 (assay: cell death relative to DMSO vehicle (fraction); higher = more cytotoxic). Settings: 5 µM; treatment time 48 h; medium cystine 25 µM.

Row | SMILES | cell death
1 | COc1ccc(C2(CNC(=O)c3ccc(NC(=O)c4ccco4)cc3)CCOCC2)cc1 | inactive: 0.207
2 | CC(=O)O[C@H](CC(=O)O)C[N+](C)(C)C [O-Acetyl-L-carnitine hydrochloride] | inactive: 0.0586
3 | CCc1cnc(N2CCC(c3nc(COc4ccc(-n5cnnn5)cc4)cs3)CC2)nc1 | inactive: 0.524
4 | CC(C)(OCc1nn(Cc2ccccc2)c2ccccc12)C(=O)O [Bindarit] | active: 0.703
5 | C[C@@H]1CCO[C@H]2Cn3cc(C(=O)NCc4ccc(F)cc4F)c(=O)c(O)c3C(=O)N12 [Dolutegravir] | inactive: 0.214
6 | Nc1nc(=O)c2c([nH]1)NCC(CNc1ccc(C(=O)N[C@@H](CCC(=O)O)C(=O)O)cc1)N2C=O (stereo partly drawn) [Calcium folinate] | inactive: 0.679
7 | Cc1ccc(-c2csc3ncnc(SCCC(=O)O)c23)cc1 | inactive: 0.667
8 | C[C@H]1O[C@H](O[C@H]2[C@H](O)[C@@H](O)[C@@H](O[C@H]3[C@H](O)[C@@H](O)C(O)O[C@@H]3CO)O[C@@H]2CO)[C@H](O)[C@@H](O)[C@@H]1N[C@H]1C=C(CO)[C@@H](O)[C@H](O)[C@H]1O (stereo partly drawn) [Acarbose] | inactive: 0.145

2 entries from above, as comma-separated lines:
Row,SMILES,cell death
3,CCc1cnc(N2CCC(c3nc(COc4ccc(-n5cnnn5)cc4)cs3)CC2)nc1,inactive: 0.524
4,CC(C)(OCc1nn(Cc2ccccc2)c2ccccc12)C(=O)O [Bindarit],active: 0.703
